The test system of this data set is TCF1EWT (full-length human TCF1E, C-clamp isoform) (human). As to the kind of experiment: EMSA. The conditions noted are these: COS-1 lysate, salmon sperm DNA competitor; EMSA: 10 mM HEPES pH 8.0, 2.5 mM EDTA, 10% glycerol, 20 mM KCl, 5 mM MgCl2, 0.024 ug/ul salmon sperm DNA, 20 mM DTT, 1 ng 32P probe in 20 ul; temperature not stated; protein in a lysate after overexpression; label: 32P. On the technique in general: In EMSA bound probe runs differently from free probe, usually more slowly.

Construct, isoform or probe ends are uncertain for at least one entry. Results from cells or extracts need not show a direct contact. The comparison behind a weaker result is the experiment's own reference, which may not be listed here.

Results on 2 sequences are retold here after paper PMC4267635.

“AGTATATATTCTTTGATGATTGGGTAGTTATAAACTTCAAAGCC (double strand) [SP5 mut]”: the binding result was “binds more weakly”.

With “AGCCGCTATTCTTTGATGATTGGGTAGCGGCAAACTTCAAAGCC (double strand) [SP5 WT]”, the binding result is on record as “binds”.
